The text below walks through data of publication doi:10.1101/2022.09.09.507380.

Protein sequences, listed by entry. Tags and fused reporters are not part of them.
UniProt P62140: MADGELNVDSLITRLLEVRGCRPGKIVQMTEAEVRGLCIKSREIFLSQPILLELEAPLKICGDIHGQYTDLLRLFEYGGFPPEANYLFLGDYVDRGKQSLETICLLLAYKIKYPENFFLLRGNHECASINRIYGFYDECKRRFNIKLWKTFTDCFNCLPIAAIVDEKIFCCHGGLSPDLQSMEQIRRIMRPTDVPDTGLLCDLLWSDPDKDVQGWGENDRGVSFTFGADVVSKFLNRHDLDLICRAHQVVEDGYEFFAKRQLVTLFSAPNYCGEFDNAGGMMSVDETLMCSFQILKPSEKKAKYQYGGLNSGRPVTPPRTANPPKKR
UniProt P36873: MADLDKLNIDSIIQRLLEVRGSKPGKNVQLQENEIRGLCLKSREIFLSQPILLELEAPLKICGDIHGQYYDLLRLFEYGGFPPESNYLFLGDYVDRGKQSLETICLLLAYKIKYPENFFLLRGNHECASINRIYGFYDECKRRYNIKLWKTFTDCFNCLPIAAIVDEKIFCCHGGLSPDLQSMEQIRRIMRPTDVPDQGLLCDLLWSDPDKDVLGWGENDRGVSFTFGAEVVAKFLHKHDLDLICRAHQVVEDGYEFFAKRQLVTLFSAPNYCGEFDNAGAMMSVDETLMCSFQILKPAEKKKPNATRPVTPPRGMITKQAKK
UniProt Q92624: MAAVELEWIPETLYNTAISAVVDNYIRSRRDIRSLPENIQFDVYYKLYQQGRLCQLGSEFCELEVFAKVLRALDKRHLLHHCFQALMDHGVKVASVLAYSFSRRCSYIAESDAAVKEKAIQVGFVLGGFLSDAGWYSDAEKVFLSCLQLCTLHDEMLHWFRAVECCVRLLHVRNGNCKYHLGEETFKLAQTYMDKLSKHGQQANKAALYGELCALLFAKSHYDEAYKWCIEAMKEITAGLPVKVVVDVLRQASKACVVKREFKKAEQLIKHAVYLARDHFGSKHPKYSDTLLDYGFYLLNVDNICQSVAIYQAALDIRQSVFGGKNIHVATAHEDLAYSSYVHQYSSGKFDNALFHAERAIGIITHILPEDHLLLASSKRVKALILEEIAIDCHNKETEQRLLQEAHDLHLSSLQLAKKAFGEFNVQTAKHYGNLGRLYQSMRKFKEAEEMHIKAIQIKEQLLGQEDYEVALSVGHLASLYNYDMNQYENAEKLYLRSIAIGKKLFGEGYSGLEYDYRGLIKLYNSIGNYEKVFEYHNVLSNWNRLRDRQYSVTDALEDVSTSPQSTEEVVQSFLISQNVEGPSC
UniProt Q9BZL4: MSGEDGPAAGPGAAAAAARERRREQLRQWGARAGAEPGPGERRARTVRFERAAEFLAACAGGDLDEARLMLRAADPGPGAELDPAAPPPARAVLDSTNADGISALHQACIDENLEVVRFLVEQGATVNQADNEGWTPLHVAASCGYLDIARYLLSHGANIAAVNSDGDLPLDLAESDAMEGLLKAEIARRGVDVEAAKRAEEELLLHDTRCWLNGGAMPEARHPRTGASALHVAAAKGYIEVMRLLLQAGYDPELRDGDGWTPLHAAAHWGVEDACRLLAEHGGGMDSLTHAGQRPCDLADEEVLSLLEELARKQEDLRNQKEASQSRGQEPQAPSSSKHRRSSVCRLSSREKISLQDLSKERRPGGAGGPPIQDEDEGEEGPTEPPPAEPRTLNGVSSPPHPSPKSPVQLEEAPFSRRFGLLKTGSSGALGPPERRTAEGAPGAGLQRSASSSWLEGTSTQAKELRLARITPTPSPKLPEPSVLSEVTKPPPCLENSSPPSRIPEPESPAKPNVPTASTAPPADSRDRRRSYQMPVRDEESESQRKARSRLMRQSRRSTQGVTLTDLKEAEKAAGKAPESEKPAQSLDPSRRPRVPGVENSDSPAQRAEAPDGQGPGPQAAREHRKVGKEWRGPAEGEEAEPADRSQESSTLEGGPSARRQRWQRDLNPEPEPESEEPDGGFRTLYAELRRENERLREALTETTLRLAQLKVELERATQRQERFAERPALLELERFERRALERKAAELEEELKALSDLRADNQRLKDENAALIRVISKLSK
UniProt Q8IWU2: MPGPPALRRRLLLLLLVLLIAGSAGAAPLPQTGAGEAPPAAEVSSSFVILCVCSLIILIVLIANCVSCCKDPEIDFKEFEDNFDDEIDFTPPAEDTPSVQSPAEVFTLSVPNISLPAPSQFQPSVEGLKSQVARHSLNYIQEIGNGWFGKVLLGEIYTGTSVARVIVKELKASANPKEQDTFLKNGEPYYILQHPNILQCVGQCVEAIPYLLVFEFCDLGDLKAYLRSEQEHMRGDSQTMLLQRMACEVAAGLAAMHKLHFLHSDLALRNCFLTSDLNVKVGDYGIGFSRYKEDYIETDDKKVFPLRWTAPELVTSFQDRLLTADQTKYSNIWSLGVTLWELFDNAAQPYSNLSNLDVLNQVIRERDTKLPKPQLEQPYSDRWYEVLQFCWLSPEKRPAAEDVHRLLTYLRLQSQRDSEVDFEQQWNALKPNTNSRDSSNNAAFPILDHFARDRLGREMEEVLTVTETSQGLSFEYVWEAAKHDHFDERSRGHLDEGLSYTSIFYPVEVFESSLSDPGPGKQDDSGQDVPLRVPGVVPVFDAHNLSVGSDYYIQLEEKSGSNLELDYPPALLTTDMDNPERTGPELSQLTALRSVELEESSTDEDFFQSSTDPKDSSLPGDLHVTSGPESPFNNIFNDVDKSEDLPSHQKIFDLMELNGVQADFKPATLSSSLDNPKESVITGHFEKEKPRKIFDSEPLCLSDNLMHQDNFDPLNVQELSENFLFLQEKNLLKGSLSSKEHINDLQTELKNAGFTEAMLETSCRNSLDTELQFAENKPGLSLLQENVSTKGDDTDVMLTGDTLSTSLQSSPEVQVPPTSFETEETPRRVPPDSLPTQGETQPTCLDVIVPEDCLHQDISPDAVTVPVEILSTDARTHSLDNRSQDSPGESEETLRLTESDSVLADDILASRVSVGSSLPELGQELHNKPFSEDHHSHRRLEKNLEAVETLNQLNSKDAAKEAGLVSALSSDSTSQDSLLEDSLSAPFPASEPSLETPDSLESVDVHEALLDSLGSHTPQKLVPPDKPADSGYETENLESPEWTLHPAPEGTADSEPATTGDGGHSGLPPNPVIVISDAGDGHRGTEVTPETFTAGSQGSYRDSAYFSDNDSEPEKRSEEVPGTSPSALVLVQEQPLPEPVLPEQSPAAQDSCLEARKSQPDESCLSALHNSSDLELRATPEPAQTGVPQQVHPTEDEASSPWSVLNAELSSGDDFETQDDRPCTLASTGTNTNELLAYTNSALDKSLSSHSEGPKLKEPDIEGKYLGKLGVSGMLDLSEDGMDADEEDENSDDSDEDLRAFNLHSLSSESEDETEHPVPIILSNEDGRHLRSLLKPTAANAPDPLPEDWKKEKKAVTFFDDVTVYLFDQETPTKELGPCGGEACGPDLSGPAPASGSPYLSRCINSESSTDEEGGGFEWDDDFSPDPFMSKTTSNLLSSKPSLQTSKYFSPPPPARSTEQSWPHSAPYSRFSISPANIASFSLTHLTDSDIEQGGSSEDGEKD
UniProt Q96I34: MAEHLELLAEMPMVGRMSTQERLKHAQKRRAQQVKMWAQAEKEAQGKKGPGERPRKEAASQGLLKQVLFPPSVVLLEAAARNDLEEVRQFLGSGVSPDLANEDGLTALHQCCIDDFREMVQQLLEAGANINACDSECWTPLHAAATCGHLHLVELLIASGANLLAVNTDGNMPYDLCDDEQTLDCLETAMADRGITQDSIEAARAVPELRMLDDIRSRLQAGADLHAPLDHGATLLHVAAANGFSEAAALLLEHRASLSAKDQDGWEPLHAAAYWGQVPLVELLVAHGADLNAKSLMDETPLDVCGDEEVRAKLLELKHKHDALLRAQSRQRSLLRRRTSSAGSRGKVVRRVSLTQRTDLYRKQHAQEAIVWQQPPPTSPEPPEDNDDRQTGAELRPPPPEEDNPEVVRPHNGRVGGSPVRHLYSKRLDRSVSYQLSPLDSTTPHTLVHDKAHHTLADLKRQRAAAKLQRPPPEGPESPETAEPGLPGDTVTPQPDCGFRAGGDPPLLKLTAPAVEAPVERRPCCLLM
UniProt Q12972: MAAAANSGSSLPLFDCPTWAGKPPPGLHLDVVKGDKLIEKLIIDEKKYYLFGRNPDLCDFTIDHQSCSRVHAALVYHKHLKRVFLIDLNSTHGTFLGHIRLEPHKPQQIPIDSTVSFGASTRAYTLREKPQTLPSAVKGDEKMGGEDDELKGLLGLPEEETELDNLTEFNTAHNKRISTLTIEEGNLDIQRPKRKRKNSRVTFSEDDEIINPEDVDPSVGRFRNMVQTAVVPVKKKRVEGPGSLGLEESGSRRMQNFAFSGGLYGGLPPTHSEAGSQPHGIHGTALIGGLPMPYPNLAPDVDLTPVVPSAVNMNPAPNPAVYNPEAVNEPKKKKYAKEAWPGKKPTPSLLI
UniProt O75901: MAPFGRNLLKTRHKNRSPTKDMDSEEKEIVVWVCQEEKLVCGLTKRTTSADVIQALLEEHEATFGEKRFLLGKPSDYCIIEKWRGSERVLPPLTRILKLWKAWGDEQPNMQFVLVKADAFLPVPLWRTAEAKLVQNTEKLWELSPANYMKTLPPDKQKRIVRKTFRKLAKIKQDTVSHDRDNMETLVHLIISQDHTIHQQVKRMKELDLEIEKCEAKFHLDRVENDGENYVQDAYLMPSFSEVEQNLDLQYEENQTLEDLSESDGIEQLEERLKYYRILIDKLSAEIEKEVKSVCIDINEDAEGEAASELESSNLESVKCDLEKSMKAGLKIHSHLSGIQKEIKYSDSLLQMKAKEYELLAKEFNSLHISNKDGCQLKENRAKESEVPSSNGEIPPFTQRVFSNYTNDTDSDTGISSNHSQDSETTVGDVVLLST
UniProt Q96SB3: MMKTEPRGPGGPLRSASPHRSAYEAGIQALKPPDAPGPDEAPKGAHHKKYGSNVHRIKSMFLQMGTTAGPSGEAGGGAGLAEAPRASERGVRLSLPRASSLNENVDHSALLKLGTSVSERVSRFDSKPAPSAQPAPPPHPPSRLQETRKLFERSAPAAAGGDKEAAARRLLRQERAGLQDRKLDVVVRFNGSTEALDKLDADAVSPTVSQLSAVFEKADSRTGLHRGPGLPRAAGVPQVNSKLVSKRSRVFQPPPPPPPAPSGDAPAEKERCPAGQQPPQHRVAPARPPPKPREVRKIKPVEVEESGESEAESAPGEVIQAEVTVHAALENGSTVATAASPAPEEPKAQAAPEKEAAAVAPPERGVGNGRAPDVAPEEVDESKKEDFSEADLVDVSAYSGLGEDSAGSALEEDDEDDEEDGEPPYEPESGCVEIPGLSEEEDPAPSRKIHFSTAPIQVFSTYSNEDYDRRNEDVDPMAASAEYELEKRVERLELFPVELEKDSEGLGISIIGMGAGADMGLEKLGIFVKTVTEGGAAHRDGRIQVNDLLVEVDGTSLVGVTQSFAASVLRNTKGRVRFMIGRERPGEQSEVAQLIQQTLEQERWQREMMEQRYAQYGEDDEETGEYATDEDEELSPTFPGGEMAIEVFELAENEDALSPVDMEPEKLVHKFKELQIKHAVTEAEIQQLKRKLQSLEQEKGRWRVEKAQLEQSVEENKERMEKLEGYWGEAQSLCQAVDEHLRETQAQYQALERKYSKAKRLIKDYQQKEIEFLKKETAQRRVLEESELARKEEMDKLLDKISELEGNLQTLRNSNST
UniProt Q4KMQ1: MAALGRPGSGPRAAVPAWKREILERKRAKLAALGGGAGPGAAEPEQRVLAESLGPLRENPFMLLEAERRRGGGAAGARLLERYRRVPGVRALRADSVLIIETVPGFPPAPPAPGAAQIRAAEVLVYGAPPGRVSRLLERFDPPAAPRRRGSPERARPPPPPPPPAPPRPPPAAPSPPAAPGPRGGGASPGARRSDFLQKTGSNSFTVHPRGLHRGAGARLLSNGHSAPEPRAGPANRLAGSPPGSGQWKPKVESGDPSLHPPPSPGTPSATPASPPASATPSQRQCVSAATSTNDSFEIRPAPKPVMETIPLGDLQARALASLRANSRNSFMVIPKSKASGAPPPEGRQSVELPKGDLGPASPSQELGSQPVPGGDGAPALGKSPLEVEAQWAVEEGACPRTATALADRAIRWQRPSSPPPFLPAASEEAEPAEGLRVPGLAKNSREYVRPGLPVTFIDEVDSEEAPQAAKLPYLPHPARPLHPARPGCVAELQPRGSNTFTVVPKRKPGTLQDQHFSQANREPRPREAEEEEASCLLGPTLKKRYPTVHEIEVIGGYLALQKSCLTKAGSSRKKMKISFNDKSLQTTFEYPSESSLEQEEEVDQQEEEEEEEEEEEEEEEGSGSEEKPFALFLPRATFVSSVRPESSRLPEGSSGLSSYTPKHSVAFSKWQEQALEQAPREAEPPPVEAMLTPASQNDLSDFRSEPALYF

What all share (assay): affinity purification with mass spectrometry
For experiment [1], the target named is GFP-tagged c20orf27 (wild type) (UniProt Q9GZN8).
Experiment [2] concerns the target hPP1β-GFP (pEGFP expression plasmid, stable cell lines) (human) (UniProt P62140).
For experiment [3], the target named is GFP-tagged PP1ɣ (HeLa/BAC cell line hPPP1CC-LAP) (human) (UniProt P36873).
Experiment [4] deals with GFP-tagged PP1β (HeLa/BAC cell line mPPP1CB-LAP) (mouse) (UniProt P62141).
Experiment [5] has as its target GFP-hPP1γ (pEGFP expression plasmid, stable cell lines) (human) (UniProt P36873).

These are yes or no findings as the source states them, for the method shown. In cells and extracts the contact can be indirect. A yes stands for co-enrichment or nearness to the bait. Other partners may have been found. For part of these data: A no says only that the protein was not detected with the bait.

As to “APPBP2 (amyloid beta precursor protein binding protein 2) (from UniProt Q92624 1-585)”, the binding entry in experiment [1] is listed as “binds”.
LENG3 (from UniProt Q9BZL4 1-782): the binding entry in experiment [2] was “binds”.
Take LMTK2 (from UniProt Q8IWU2 1-1503): the binding result in experiment [3] is listed as “binds”; in experiment [4], “no binding”.
Regarding MKI67 (from UniProt P46013 1-3256), the binding entry in experiment [2] is reported as “binds”.
For MYPT3 (from UniProt Q96I34 1-528), the figures for the binding entry in experiment [5] and in experiment [2] were “no binding” and “binds”, respectively.
The matching figures for NIPP1 (from UniProt Q12972 1-351): “binds” and “binds”.
As for “RASSF9 (endogenous) (from UniProt O75901 1-435)”, the binding result in experiment [5] and in experiment [2] was “no binding” throughout.
RIF1 (from UniProt Q5UIP0 1-2472): the binding result in experiment [5] is on record as “binds”.
On the same count and under the same terms, to Spinophilin (from UniProt Q96SB3 1-817) belongs “binds”.
Consider “TPRN (Taperin) (from UniProt Q4KMQ1 1-711)”, for which the binding entry in experiment [2] is listed as “no binding”.
With “UBR2 (Recognin) (from UniProt Q8IWV8 1-1755)”, the binding result in experiment [1] is listed as “binds”.
